Experimental data from patent publication US10004762B2, “Dialysis formulation” (Gambro Lundia AB, priority 2013, dated 2018).

Details: all HD patients

Nc1nc2c([nH]c(=O)n2[C@H]2C[C@H](O)[C@@H](CO)O2)c(=O)[nH]1 [Formulation 8-OHdG, 8-OHdG]
P1 pre-dialysis plasma concentration ± SEM: 0.34 ± 0.02 ng/mL
P2 post-dialysis plasma concentration ± SEM: 0.21 ± 0.02 ng/mL
